Experimental data from patent publication EP1806142B1.
Results are given in words; binding and its absence hold for the method and conditions named. In cells and extracts the contact can be indirect. Some entries that bind do so weakly or less than the wild type.

Sequences of proteins named here, by UniProt entry; tags and fusion partners are left off. Residues count along the entry.
UniProt O73885: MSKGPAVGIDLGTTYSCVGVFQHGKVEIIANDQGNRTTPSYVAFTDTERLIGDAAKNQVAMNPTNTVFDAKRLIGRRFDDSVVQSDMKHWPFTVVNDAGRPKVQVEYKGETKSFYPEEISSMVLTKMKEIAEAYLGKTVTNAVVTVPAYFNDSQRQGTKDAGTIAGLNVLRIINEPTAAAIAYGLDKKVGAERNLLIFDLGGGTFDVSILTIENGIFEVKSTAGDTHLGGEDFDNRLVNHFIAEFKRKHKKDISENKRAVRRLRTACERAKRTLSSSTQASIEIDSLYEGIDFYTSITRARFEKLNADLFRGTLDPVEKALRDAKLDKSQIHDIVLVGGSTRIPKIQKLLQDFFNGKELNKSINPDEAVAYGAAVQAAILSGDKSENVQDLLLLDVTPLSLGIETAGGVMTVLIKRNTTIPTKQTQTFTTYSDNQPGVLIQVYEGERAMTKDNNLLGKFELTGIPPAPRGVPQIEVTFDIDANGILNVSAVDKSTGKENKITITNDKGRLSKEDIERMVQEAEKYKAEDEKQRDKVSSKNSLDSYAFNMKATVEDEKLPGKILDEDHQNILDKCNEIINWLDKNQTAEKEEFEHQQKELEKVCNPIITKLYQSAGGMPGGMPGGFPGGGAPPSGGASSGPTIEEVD
UniProt P03070, residues 1-272: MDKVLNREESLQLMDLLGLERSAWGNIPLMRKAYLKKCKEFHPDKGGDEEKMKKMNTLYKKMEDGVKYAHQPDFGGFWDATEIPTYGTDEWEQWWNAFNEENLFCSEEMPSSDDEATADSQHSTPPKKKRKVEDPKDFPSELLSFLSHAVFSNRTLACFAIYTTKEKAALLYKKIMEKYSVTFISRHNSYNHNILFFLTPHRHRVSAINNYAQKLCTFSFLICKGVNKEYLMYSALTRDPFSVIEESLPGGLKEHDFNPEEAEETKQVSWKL

Biological target: Hsp73 of LMH cells (chicken hepatoma cells) (chicken) (UniProt O73885)
Assay: co-immunoprecipitation with mAb PAb108 from transfected LMH cells, SDS-PAGE, Coomassie Blue

N-terminal 272 residue T-Ag fragment T1-272 (from UniProt P03070 1-272)
binding: binds
